## Library screening results

Chains of the proteins cited; added tags and fusions are not shown.
UniProt E9BF75, entry or part of it: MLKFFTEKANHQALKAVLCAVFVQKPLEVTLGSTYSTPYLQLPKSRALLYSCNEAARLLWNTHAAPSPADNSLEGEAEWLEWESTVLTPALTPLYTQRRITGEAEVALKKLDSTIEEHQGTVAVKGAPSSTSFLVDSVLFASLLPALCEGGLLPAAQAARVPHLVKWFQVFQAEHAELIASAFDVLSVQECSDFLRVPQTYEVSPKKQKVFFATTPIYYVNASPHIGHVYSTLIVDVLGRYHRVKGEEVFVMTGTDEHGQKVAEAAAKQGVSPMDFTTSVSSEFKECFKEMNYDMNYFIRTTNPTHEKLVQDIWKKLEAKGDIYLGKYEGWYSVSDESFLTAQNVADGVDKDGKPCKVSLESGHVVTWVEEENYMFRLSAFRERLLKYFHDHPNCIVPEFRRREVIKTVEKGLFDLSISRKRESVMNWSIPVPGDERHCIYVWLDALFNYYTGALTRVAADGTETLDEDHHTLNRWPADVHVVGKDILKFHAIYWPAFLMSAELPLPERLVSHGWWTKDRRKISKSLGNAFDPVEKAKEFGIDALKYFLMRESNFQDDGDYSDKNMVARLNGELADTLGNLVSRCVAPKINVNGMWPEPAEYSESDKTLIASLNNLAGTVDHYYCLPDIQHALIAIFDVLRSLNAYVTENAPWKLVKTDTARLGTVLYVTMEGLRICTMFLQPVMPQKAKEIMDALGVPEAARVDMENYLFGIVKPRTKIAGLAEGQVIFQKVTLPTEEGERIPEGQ

From ChEMBL document CHEMBL3988442, “University of Dundee, Small-Polar-MMV Screening Library” (2021).

Results are percentages, as filed.
The controls that fix the scale are not given in the record; negative values are as filed.
This is an unselected part of the compounds tested.
A dash means the value is not listed here; it may have been measured.

LdMetRS: 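Methionyl-tRNA synthetase (putative), Leishmania donovani (UniProt E9BF75). Primary screen of methionyl-tRNA synthetase; the read-out is not stated. The test concentration is not given. Values are per cent inhibition. Of about 68,000 compounds tested this way, about 24 (0.035%) reached 50% or more in at least one test.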
Mtb heat-shock: 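Assay on Mycobacterium tuberculosis, filed only as a heat shock assay from Cornell; the read-out is not stated. The concentration is filed as 10 mM, unlikely as a test dose, so the dose is not known. Higher reads as stronger inhibition (inferred: compounds with an IC50 in retests scored well above the rest). Size under these conditions: about 69,000 compounds, about 930 of them at 50% or above in at least one test.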

compound | LdMetRS | Mtb heat-shock
CCc1nc(CN(C)C2CCN(CCn3cc(C#N)cn3)C2)no1 (stereo not given) | -3.922 | 4.541
COCCc1ncc(CN2CCC(Oc3ccccc3C)CC2)cn1 | 15.03 | -7.055
O=S(=O)(c1cccnc1)N1C[C@@H]2CC[C@H](C1)N(Cc1ccccc1)C2 | 11.2 | -
CC(=O)Nc1nc(CN2CCCCC2Cn2cccn2)cs1 (stereo not given) | 16.2 | 5.035
Cc1nnc(NCC(c2ccco2)N2CCCCC2)c(C#N)c1C (stereo not given) | 11.41 | 14.86
COc1ccc(CN(C)C2CCN(S(C)(=O)=O)CC2)c2cccnc12 | 7.394 | 43.86
Cc1ncc(S(=O)(=O)N(CC(C)C)c2cccc(O)c2)s1 | 12.59 | -5.88
O=C(Cc1ccccc1)N1Cc2nccn2CC(CN2CCCC2)C1.O=C(O)C(F)(F)F (stereo not given) | - | 0.008276
CS(=O)(=O)NCc1ccc(NC(=O)CC2=CCCCC2)cc1 | 8.711 | -3.129
Cc1nnc(CN2CCOC(c3ccc(Cl)cc3)C2)o1 (stereo not given) | 10.18 | -14.22
OCCN1CCC(CNCc2cn(-c3ccccc3)nn2)CC1 | 17.58 | -13.69
O=C(Nc1cccnc1)[C@@H]1COC[C@H]2CN(C3CCCC3)C[C@H]21 | 14.37 | -
Cc1cc(CN2C[C@@H]3CN(C(=O)c4cccn4C)CCO[C@@H]3C2)no1 | 6.849 | -
c1cnnc(N2CCCC2CNCc2noc(C3CC3)n2)c1 (stereo not given) | 18.78 | -10.03
CSCc1noc(-c2nc3c([nH]2)CCCNC3=O)n1 | 8.333 | 4.039
CC(NC(=O)C1CCN(C(C)C)CC1)c1nncn1C1CCCC1 (stereo not given) | -4.267 | -3.256
COCCN1CCC2(CCCN(Cc3ccoc3)C2)C1=O.O=C(O)C(F)(F)F (stereo not given) | - | -11.63
CC(C)OCCCNS(=O)(=O)c1ccc2c(c1)NC(=O)C(C)O2 (stereo not given) | 10.11 | 5.608
Cc1ccoc1C(=O)NCCS(=O)(=O)N1CCSCC1 | 8.189 | -17.13
CC(NCCN1CCN(C(=O)C2CCCC2)CC1)c1ccccn1 (stereo not given) | -6.596 | -5.24
COc1ccc(C(=O)N2CC[C@](C)(O)[C@H](C)C2)cc1N1CCOCC1 | 4.27 | 9.025
CCCn1cc(C(=O)N(C)Cc2nc(-c3ccccn3)no2)c(C)n1 | 19.51 | -0.3968
Cn1c(Cn2ccnc2)nnc1C1CCN(C(=O)c2ccncc2)CC1 | 11.04 | -5.543
CS(=O)(=O)N1CCOCC2(CCN(C(=O)c3cccnc3)CC2)C1.O=C(O)C(F)(F)F | - | 5.372
Cc1ccc(C(=O)N(Cc2cccc(F)c2)C2CC2)c(=O)[nH]1 | 10.42 | 13.64
Cc1ccsc1-c1nccn1CCS(=O)(=O)N1CCCC1 | 7.246 | 1.441
O=C(O)C(F)(F)F.[H][C@]12C[C@@H](C(=O)NCc3cccs3)CO[C@@]1([H])CCN(C1CCCC1)C2 | - | 16.16
N#CC(NC(=O)CS(=O)(=O)C1CCCC1)c1ccc(F)cc1F (stereo not given) | 17.73 | -27.33
O=C(NCc1ccco1)N1CCN(Cc2ccc3c(c2)CCO3)CC1 | 22.29 | 49.75
O=C([C@H]1C[C@H]2OCC[C@H]2N(Cc2ccoc2)C1)N1CCCCO1 | 16.42 | -
CC1(C)Cc2ccccc2-c2nc(NCCCO)[nH]c(=O)c21 | 10.5 | -19.81
CCC1CN(C(=O)COc2ccc(C)nc2)CCO1 (stereo not given) | 10.14 | 10.45
O=C(O)C(F)(F)F.[H][C@@]12CCN(C3CCOCC3)C[C@]1([H])[C@@H](CNC(=O)c1cnn(C)c1)OC2 | - | -8.749
[H][C@]12CN(C(=O)c3ccc(C#N)nc3)CC[C@@]1(O)CCN(C(=O)N(C)C)C2 | - | 7.175
COc1cc(CCC(=O)N2CCC(c3cncc(C)n3)CC2)on1 | 9.062 | 20.1
COc1cccc2c(=O)n(Cc3ccnc(C)c3)cnc12 | -9.296 | 15.18
O=C(CC1CC1)N[C@@H]1CN(C(=O)c2ccoc2)C[C@@H]2CCCO[C@@H]21 | 8.831 | -
CC(C)CN1CC(C(=O)NCc2ccnc(-n3cccn3)c2)CC1=O (stereo not given) | 11.22 | -8.594
CC(C)CN1C[C@@H]2C(=O)N(C)C3(CCN(C(=O)C(C)C)CC3)[C@@H]2C1 | 12.78 | -
COCCOCC(=O)Nc1cccc(CN(C)C(C)=O)c1 | 8.741 | -24.48
c1cc(N2CCC3(COCc4cnc(NCC5CC5)nc43)C2)ncn1 (stereo not given) | 5.625 | -22.65
CCc1nnc(Nc2cccc(C3CCN(c4cnccn4)CC3)n2)s1 | 1.942 | -23.14
COc1ccc(CSCC(O)CO)c(Cl)c1 (stereo not given) | 13.64 | -16.45
CCc1nnc(CNC(=O)c2cc3c(nc2OC)CCC3)s1 | -49.61 | -3.586
CC(C)c1nccn1CCCNC(=O)c1ccc(N(C)C)nc1 | 16.59 | -8.42
CC(c1nnc(-c2ccccc2)o1)N1CCC(Nc2ccccc2)CC1 (stereo not given) | 18.58 | 24.9
CCOc1ncccc1CNCc1c(C(C)C)nn(C)c1N(C)C | 14.81 | -14.67
CCC(=O)NCCNC(=O)c1nn(C)c(C)c1Cl | 8.421 | 11.46
Cc1ccc(C(=O)NCCCNS(C)(=O)=O)cc1C | 5.96 | -20.42
O=C(O)C(F)(F)F.[H][C@]12C[C@@H](Cn3cncn3)N(CC3CC3)[C@@]1([H])CCN(S(C)(=O)=O)C2 | - | 15.04
CCn1cc(NC(=O)NCC(O)COc2cccc(F)c2)cn1 (stereo not given) | 14.29 | -0.5861
CC(C)Oc1cccc(C(O)CNC(=O)NCc2cccs2)c1 (stereo not given) | 12.77 | 5.47
CCc1cnc(NCCCOC2CCCC2)nc1 | -2.839 | 30.46
CCn1c(C)cc(C(=O)N2CCc3nnc(N)cc3C2)c1C | 34.1 | 4.813
COc1ccc(-c2noc([C@@H](C)NC(=O)CC(C)C)c2C(=O)O)cc1 | 5.085 | 1.557
[H][C@@]12CCN(C(=O)CCOC)C[C@]1([H])OCCN(c1ccsc1)C2=O | - | -15.31
O=C(NCC1CC1)[C@H]1C[C@@H]2CCN(Cc3nccs3)C[C@@H]2O1 | 20.54 | -
Cc1ccc(-c2nc(CN3CCc4nn(C)c(=O)cc4C3)no2)cc1 | 5.882 | 23.44
[H][C@@]12COC[C@@H](Cc3nnc(C)o3)[C@]1([H])CN(c1cc(OC)ncn1)C2 | - | 10.6
O=C(O)C(F)(F)F.[H][C@@]12COC[C@@H](C(=O)N3CCC(F)CC3)[C@]1([H])CN(C1CCCC1)C2 | - | 3.735

For reference, 6 entries once more:

{"compound": "COc1cc(CCC(=O)N2CCC(c3cncc(C)n3)CC2)on1", "LdMetRS": 9.062, "Mtb heat-shock": 20.1}
{"compound": "CSCc1noc(-c2nc3c([nH]2)CCCNC3=O)n1", "LdMetRS": 8.333, "Mtb heat-shock": 4.039}
{"compound": "CC(C)c1nccn1CCCNC(=O)c1ccc(N(C)C)nc1", "LdMetRS": 16.59, "Mtb heat-shock": -8.42}
{"compound": "COc1ccc(CN(C)C2CCN(S(C)(=O)=O)CC2)c2cccnc12", "LdMetRS": 7.394, "Mtb heat-shock": 43.86}
{"compound": "N#CC(NC(=O)CS(=O)(=O)C1CCCC1)c1ccc(F)cc1F", "stereo": "stereo not given", "LdMetRS": 17.73, "Mtb heat-shock": -27.33}
{"compound": "CCOc1ncccc1CNCc1c(C(C)C)nn(C)c1N(C)C", "LdMetRS": 14.81, "Mtb heat-shock": -14.67}